Test results taken from paper PMC12797002, “Hydrophobic residues in the α‐synuclein NAC domain drive seed‐competent fibril formation and are targeted by peptide inhibitors” (The Febs Journal, 2025).
No constants are given. Whether binding was seen depends on the method and setting.

Molecular target: scrambled control peptide
Assay: ThT aggregation kinetics; inhibitor peptides alone (Fig. S8); both purified

binding: no binding
Binder: VSRKIVRRRRR [scrambled control peptide]
